Measured values: PMC11609542
These are yes or no findings as the source states them, for the method shown. Binding seen in cells or lysates may run through a third protein. These calls come from enrichment with a bait or labelling near it, and not all partners need be listed.

The chains behind the UniProt entries cited, without tags or fusion partners. Residues count along the entry.
UniProt Q16531: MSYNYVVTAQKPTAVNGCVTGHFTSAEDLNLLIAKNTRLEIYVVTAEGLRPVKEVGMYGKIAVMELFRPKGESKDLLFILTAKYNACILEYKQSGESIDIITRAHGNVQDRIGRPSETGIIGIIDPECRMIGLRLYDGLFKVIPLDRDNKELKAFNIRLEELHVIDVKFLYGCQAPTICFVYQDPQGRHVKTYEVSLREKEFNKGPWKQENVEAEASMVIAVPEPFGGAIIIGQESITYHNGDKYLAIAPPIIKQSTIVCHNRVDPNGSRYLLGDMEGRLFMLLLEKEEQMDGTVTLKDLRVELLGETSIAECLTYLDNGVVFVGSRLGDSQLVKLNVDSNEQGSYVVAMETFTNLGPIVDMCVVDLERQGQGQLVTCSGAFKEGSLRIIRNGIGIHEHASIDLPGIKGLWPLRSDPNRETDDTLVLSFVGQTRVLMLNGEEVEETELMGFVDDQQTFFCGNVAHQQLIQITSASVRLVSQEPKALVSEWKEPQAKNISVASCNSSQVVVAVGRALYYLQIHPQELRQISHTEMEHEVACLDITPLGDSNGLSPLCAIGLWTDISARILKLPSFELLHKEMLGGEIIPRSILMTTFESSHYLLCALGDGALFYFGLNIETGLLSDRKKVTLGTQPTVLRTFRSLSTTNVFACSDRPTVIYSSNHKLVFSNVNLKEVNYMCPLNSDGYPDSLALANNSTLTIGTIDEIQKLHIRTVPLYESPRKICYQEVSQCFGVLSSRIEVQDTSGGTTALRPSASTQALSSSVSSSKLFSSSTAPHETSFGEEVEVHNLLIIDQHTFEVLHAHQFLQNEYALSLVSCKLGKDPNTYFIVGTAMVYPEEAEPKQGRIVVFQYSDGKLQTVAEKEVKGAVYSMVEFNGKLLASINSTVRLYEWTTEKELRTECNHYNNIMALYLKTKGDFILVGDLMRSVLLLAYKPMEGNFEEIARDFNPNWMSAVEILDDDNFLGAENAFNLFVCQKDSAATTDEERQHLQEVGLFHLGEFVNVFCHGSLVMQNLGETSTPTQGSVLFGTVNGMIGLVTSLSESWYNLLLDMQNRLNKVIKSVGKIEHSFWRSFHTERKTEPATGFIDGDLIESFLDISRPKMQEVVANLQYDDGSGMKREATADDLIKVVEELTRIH
UniProt Q13098: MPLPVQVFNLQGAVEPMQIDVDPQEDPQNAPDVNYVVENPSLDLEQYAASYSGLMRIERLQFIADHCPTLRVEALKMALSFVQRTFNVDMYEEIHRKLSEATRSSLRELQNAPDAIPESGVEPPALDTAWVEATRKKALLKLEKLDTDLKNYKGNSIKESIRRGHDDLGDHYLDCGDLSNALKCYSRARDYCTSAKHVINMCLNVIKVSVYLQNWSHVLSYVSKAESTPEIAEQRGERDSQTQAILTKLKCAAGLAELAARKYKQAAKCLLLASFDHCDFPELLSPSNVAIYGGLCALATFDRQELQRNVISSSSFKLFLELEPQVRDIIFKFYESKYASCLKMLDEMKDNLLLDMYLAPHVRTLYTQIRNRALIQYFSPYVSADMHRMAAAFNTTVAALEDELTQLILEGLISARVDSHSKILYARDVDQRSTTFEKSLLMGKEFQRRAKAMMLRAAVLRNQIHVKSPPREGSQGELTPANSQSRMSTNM
UniProt P40939, residues 37-763: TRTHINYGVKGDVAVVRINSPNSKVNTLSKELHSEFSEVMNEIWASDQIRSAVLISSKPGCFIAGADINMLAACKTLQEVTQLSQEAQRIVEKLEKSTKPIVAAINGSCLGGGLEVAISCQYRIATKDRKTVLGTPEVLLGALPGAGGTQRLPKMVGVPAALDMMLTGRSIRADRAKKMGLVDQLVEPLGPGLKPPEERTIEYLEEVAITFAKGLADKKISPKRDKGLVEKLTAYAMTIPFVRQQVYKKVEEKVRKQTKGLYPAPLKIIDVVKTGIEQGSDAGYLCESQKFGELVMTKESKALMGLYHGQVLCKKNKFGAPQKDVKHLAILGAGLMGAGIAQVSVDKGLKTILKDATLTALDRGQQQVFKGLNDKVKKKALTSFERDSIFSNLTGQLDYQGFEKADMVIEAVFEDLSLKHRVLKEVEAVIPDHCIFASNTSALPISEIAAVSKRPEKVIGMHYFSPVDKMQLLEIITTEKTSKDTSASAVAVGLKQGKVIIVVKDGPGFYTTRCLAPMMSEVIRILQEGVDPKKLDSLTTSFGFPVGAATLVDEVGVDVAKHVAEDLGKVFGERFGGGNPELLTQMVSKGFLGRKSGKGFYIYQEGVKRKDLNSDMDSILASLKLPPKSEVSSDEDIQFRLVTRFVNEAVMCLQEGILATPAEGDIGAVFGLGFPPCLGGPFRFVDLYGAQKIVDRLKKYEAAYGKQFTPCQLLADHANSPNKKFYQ
UniProt Q8TEB1: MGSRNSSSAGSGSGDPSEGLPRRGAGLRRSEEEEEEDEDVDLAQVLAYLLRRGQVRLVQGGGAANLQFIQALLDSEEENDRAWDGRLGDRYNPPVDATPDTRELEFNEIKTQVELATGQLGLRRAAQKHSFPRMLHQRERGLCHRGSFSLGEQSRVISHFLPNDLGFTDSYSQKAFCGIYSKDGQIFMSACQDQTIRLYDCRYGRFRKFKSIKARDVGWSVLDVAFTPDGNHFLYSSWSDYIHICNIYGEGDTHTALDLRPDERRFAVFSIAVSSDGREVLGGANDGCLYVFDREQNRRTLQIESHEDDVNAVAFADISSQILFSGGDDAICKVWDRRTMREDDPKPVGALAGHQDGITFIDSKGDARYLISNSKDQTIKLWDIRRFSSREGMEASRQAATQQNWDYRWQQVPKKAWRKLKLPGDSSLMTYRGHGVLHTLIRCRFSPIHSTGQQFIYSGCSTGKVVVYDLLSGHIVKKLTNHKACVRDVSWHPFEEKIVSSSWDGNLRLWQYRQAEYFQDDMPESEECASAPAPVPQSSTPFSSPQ
UniProt Q92905: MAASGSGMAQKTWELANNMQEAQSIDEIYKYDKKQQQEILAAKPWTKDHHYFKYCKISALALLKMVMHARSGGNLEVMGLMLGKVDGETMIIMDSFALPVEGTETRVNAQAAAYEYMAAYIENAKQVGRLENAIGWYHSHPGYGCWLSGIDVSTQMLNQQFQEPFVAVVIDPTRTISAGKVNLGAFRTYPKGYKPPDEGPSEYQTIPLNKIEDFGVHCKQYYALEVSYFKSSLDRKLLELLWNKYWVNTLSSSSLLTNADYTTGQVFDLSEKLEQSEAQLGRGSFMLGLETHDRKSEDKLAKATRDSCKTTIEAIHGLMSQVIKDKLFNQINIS
UniProt P54652: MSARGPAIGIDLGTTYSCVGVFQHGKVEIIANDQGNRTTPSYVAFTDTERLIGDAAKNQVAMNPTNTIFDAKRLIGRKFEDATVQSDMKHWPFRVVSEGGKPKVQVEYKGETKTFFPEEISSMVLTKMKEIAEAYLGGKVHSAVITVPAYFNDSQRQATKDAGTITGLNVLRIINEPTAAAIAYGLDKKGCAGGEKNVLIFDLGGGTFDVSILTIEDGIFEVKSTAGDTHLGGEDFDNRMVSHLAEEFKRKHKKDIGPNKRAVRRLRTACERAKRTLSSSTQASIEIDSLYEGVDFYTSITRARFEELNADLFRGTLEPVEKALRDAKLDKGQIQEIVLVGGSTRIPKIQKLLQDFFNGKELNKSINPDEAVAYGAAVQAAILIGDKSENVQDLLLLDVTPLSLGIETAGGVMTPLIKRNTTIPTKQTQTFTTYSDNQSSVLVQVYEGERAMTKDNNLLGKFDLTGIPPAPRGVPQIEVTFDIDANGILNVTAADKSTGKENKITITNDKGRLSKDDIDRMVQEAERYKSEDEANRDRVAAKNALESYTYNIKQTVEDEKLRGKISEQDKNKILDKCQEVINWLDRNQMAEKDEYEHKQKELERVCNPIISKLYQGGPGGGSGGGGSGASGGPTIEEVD
UniProt P27816: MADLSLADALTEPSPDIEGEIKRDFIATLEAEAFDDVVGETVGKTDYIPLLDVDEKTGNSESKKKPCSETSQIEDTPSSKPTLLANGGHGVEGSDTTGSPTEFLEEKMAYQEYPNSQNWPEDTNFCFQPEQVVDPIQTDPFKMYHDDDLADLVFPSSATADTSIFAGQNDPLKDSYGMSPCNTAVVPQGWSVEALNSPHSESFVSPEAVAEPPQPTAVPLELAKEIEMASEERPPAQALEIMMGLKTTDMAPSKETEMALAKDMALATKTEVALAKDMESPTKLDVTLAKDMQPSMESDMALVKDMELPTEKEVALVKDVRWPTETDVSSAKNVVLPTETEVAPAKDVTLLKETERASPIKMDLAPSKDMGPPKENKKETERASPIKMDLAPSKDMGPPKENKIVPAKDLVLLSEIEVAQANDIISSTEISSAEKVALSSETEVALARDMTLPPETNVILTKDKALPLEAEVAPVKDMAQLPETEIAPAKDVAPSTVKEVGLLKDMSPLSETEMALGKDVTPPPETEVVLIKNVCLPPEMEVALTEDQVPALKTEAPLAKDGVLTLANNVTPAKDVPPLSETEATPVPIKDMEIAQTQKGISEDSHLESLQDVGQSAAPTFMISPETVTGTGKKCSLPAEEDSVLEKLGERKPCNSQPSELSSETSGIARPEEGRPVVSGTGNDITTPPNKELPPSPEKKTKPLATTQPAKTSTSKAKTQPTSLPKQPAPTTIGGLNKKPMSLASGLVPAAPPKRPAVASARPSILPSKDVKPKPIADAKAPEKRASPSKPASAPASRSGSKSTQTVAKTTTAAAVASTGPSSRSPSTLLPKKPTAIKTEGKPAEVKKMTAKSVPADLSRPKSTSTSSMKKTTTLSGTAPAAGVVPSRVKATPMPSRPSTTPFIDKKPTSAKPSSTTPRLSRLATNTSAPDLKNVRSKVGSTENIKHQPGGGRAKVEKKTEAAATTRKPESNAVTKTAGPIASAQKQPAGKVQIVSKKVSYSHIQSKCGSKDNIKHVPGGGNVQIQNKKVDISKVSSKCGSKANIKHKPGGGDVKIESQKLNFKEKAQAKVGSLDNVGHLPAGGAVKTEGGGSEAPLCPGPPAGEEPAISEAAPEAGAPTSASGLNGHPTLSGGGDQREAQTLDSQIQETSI
UniProt Q9H9Q2: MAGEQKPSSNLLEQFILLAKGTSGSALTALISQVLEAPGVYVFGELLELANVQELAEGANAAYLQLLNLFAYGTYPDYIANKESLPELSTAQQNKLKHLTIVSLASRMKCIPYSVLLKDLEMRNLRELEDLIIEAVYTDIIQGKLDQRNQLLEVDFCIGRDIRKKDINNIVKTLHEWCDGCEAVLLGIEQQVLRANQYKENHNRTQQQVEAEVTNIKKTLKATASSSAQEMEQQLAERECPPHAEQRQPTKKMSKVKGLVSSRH
UniProt Q08945: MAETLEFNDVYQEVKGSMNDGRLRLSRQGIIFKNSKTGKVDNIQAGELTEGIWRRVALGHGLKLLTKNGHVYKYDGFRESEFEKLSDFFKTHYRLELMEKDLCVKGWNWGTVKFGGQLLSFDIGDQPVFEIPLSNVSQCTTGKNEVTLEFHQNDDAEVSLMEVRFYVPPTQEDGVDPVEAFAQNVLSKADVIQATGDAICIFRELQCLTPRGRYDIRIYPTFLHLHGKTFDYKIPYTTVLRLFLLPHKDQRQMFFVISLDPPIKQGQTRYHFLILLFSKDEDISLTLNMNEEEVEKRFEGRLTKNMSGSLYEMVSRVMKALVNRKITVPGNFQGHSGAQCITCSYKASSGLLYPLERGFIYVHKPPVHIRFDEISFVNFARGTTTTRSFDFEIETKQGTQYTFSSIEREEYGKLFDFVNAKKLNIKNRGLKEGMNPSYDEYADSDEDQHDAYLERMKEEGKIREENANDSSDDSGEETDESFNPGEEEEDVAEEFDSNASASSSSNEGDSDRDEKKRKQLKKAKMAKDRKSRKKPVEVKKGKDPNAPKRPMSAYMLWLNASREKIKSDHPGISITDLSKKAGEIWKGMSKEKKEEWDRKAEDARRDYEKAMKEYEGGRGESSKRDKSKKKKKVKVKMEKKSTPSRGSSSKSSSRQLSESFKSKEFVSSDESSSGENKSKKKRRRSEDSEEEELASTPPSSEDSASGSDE
UniProt Q9UNE7: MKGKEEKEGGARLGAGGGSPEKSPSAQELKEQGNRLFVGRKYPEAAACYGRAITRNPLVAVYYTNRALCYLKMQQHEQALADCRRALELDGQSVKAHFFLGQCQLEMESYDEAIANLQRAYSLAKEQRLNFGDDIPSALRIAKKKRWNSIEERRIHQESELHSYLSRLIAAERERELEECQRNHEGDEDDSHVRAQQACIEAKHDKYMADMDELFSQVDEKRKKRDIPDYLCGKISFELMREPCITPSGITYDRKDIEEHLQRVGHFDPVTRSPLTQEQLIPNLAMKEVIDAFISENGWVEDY

The substances below were run against Strep-tagged DDB1 (human) (UniProt Q16531) (assay: affinity purification with mass spectrom).

binding | Substance
binds | COP9 signalosome subunit GPS1 (from UniProt Q13098 1-491)
binds | Cul4B (from UniProt Q13620 1-913)
binds | HADHA enzyme of the mitochondrial beta-oxidation pathway (from UniProt P40939 37-763)

Each substance was assayed against Strep-tagged DCAF11 (human) (UniProt Q8TEB1) (assay: affinity purification with mass spectrom).

binding | Substance
binds | COP9 signalosome subunit COPS5 (from UniProt Q92905 1-334)
binds | HSPA2 chaperone (from UniProt P54652 1-639)
binds | microtubule-associated protein MAP4 (from UniProt P27816 1-1152)

The next lines start with the substance.

Substance | binding
COP9 signalosome subunit COPS7B (from UniProt Q9H9Q2 1-264) | binds
COP9 signalosome subunit GPS1 (from UniProt Q13098 1-491) | binds
SSRP component of the FACT complex (from UniProt Q08945 1-709) | binds
STUB1 E3 ubiquitin ligase (from UniProt Q9UNE7 1-303) (enzyme) | binds
